From publication PMC12040169 (PLOS Biology, 2025)
Some of the results follow.

system: T1, CTL2-GFP (C. trachomatis L2/434/Bu, GFP-expressing); set-up: species or system HeLa; Intracellular C. trachomatis growth in HeLa cells, bulk GFP fluorescence relative to DMSO; conditions: bulk GFP, single well; 28.5 h, 10 µM; inhibitor
T1 construct: L2/434/Bu, GFP-expressing

| Structure (SMILES) | % of control remaining |
| --- | --- |
| O=c1[nH]c2ccccc2n1CCCN1CCC(Oc2cncc(OCC3COc4ccccc4O3)n2)C1 (stereo not shown) [CBK084380] | 115.022% |
| COc1cccc(C(=O)N2CCC(NC(=O)Cc3ccc(F)cc3)CC2)c1 [CBK155027] | 111.489% |
| Cc1cccc2c1OCC[C@@H]2Oc1cncc(N2CCNCC2)n1 [CBK172310G] | 110.764% |
| Cc1nn(-c2ccccn2)c(C)c1[C@@H]1C=C[C@@H](NC(=O)CCC(=O)O)C1 [CBK289170] | 115.898% |
| O=C(NCc1c(OC(=O)c2cccc([N+](=O)[O-])c2)ccc2ccccc12)c1ccccc1 [CBK260919] | 102.622% |
| Cc1c(Cc2ccccc2)c(N2CCN(C3c4ccccc4-c4ccccc43)CC2)n2c(nc3ccccc32)c1C#N [CBK263124] | 109.612% |
| O=CN1CCc2c([nH]c3cc(F)ccc23)C12CCN(CCc1ccc3c(c1)OCO3)CC2 [CBK039614] | 72.5747% |
| CC(C)c1ccc(S(=O)(=O)Nc2cccc(SC(F)(F)F)c2)cc1 [CBK044581] | 39.5459% |
| Cc1ccc2n1CCN(C(=O)c1cc(-c3ccccn3)n[nH]1)C2C(C)C (stereo not shown) [CBK282447] | 132.834% |
| CS(=O)(=O)N[C@H]1CO[C@H]2[C@@H]1OC[C@@H]2Nc1nccc(-c2ccco2)n1 [CBK289525] | 130.249% |
| Cc1cc(C2(C(F)(F)F)C=C3c4ccccc4CC(C)(C)N3C2=O)cc(C)c1O (stereo not shown) [CBK017463] | 86.4434% |
| CCCS(=O)(=O)Nc1nccnc1-c1cccs1 [CBK050763] | 147.606% |
| COCCn1cc(C(=O)N2CCCC2c2cc(C)on2)c2ccccc21 (stereo not shown) [CBK305289] | 138.345% |
| FC(F)(F)c1cccc(Sc2cccs2)n1 [CBK115242] | 100% |
| COC[C@H]1CCCN1C(=O)CC[C@H]1CNC(=O)[C@@H]2[C@@H](CCN2C(C)C)N1C [CBK289038] | 103.245% |
| CCc1cccc2c(CN3CCc4c(nc(C)[nH]c4=O)C3)c[nH]c12 [CBK283993] | 113.582% |
| CC(C)(c1ccc(Oc2cccc(N)c2)cc1)c1ccc(Oc2cccc(N)c2)cc1 [CBK260958] | 76.8976% |
| O=C(O)CN1C(=O)C(O)=C(C(=O)c2ccc(Cl)cc2)C1c1ccccc1[N+](=O)[O-] (stereo not shown) [CBK263794] | 100% |
| CCC1(c2ccccc2)OCC(C2CCCCN2)O1 (stereo not shown) [CBK023284C] | 163.901% |
| CCN(CC(=O)NCc1ccc(F)cc1)C(=O)c1cc(C#N)c[nH]1 [CBK305221] | 72.5279% |
| CC(C)CN(Cc1cccs1)C(=O)c1cc2n(n1)CCCN(C)C2 [CBK306793] | 117.862% |
| COc1cccc(-c2noc(C3CCN(CCc4ccccc4)CC3)n2)c1 [CBK051455] | 90.25% |
| O=C(O)c1cccc(S(=O)(=O)N2CCC(C(=O)O)CC2)c1 [CBK267199] | 177.936% |
| Cc1ccc(C(=O)NC(=O)CSc2nc(N)n[nH]2)cc1 [CBK267523] | 133.784% |
| O=C(Nc1nc(-c2cc3ccccc3o2)cs1)c1ccc(F)cc1 [CBK287756] | 104.271% |
| COc1cc(C(=S)N2CCN(C)CC2)ccc1OCC(N)=O [CBK269037] | 149.011% |
| O=C(O)c1cccc(NS(=O)(=O)c2ccc(CNC(=O)c3ccc(Cl)cc3)s2)c1 [CBK155085] | 123.81% |

| Structure (SMILES) | % of control remaining |
| --- | --- |
| Cc1ccccc1OC(C)C(=O)Nc1ccccc1C(=O)N1CCOCC1 (stereo not shown) [CBK269753] | 96.2744% |
| CCOc1cc(/C=N/NC(=O)c2cncc(Br)c2)c(Br)c(Br)c1O [CBK261386] | 100.384% |
| CC(C)(CN)CN(Cc1ccccc1C(F)(F)F)C(=O)Nc1c(F)cccc1F [CBK026822C] | 109.111% |
| CC(C)(C)NCC(O)CO/N=C(/c1ccncc1)c1ccc(Br)cc1 (stereo not shown) [CBK023914G] | 111.817% |
| CC(=O)Nc1cccc(-c2cn3ccnc3c(N3CCN(C)CC3)n2)c1 [CBK037930] | 151.615% |
| CN1CCOCC(CNC(=O)c2ccc(-c3ccccc3CO)cc2)C1 (stereo not shown) [CBK307601] | 127.967% |
| Cc1ccn(CCNCc2cc(-c3ccc(Cl)cc3)c[nH]c2=O)n1 [CBK284727] | 107.584% |
| O=C(c1cccs1)N1C[C@@H]2CCCCN(C3CCOCC3)[C@@H]2C1 [CBK285503] | 86.0167% |
| CCOc1cc(C#N)cc(I)c1OCC(=O)O [CBK266326] | 147.432% |
| Cn1c(COc2ccccc2)nnc1SCC(=O)c1cccc([N+](=O)[O-])c1 [CBK268397] | 92.675% |
| COc1cc(/C=N/NC(=O)c2nonc2N)ccc1OC(=O)c1cc(F)c(F)cc1Cl [CBK262380] | 100% |
| C=CCS(=O)(=O)N1CCC(c2nc(C)n3c(C)csc23)CC1 [CBK285251] | 133.592% |
| N#Cc1ccccc1OCCO [CBK001443] | 119.748% |
| CCOC(=O)c1cnc(Nc2nc3ccccc3o2)nc1CSc1ncccn1 [CBK268885] | 152.865% |
| CS(=O)(=O)c1ccc(-c2c[nH]c([C@@H]3COCCN3Cc3ccccc3)n2)cc1 [CBK289300] | 140.289% |
| CCCC/C=C/c1cnc(N)c(-c2ccc(C(=O)NCCO)cc2)n1 [CBK064141] | 150.226% |
| Cc1cc(NC(=O)c2ccco2)c2ccccc2n1 [CBK116258] | 63.085% |
| O=C(NCCCn1ccnc1)c1ncoc1-c1ccccc1 [CBK283887] | 143.3% |
| CC(NC(=O)N1CCN(c2ccccc2)CC1)c1ccccc1 (stereo not shown) [CBK155207] | 116.323% |
| COc1ccc2nc(O)c(CN(c3ccccc3)S(=O)(=O)c3ccccc3)cc2c1 [CBK268093] | 127.917% |
| CC(C)(C)OC(=O)N1CCCC(c2nc3ccccc3cc2N)C1 (stereo not shown) [CBK284711] | 129.048% |
| CC(C)C(=O)Nc1ccc(-c2ccccc2)c2ccccc12 [CBK083731] | 64.1519% |
| O=S(=O)(c1ccc(F)cc1)N1CCCC1c1cccc(Cc2ccccc2)n1 (stereo not shown) [CBK286231] | 109.206% |
| O=C(O)/C=N/NC(=O)c1ccco1 [CBK260923] | 110.571% |
| CCCNc1nc(-c2ccc(SC)cc2)cn2ccnc12 [CBK066619] | 170.663% |
| CCOC(=O)c1ncoc1-c1ccc(Cl)cc1Cl [CBK020578] | 118.555% |
| C=CCNC(=O)Cn1cccc2cc(-c3ccc(OC)cc3)nc1-2 [CBK285348] | 153.034% |

Part of the list above, set out differently.
Structure (SMILES) | % of control remaining
CC(C)(CN)CN(Cc1ccccc1C(F)(F)F)C(=O)Nc1c(F)cccc1F [CBK026822C] | 109.111%
CC(C)(C)NCC(O)CO/N=C(/c1ccncc1)c1ccc(Br)cc1 (stereo not shown) [CBK023914G] | 111.817%
CC(=O)Nc1cccc(-c2cn3ccnc3c(N3CCN(C)CC3)n2)c1 [CBK037930] | 151.615%
CN1CCOCC(CNC(=O)c2ccc(-c3ccccc3CO)cc2)C1 (stereo not shown) [CBK307601] | 127.967%
Cc1ccn(CCNCc2cc(-c3ccc(Cl)cc3)c[nH]c2=O)n1 [CBK284727] | 107.584%

Following part:

| Structure (SMILES) | % of control remaining |
| --- | --- |
| Cc1cc(C)n(CC(C)CNC(=O)NCCN2CCCCCC2=O)n1 (stereo not shown) [CBK305389] | 136.609% |
| Cc1csc(NC(=O)CN2CCOC(c3ccc(F)cc3)C2)n1 (stereo not shown) [CBK304703] | 99.1816% |
| COC(=O)c1c(NC(=O)CSc2nc[nH]n2)sc2c1CCCC2 [CBK267222] | 156.64% |
| CSc1ncc(Cl)c(C(=O)Nc2ccc(S(=O)(=O)N3CCOCC3)cc2)n1 [CBK268775] | 118.448% |
| Cc1ccc(-c2cc(=O)c3cc(OCC(=O)Nc4sc5c(c4C#N)CCCC5)ccc3o2)cc1 [CBK269062] | 161.302% |
| Cc1cc(NS(=O)(=O)c2ccc(Cl)c([N+](=O)[O-])c2)n(C)n1 [CBK067259] | 125.171% |
| CN(CC(=O)Nc1cnc(-c2ccc(F)cc2)c(-c2ccco2)n1)S(=O)(=O)c1ccccc1 [CBK037214] | 190.602% |
| COCCNC(=O)c1cnn2c(C)c(Cc3cccc(C#N)c3)c(C)nc12 [CBK162096] | 117.895% |
| Cc1noc(NS(=O)(=O)c2ccc(NC(=O)CCN3C(=O)c4ccccc4C3=O)cc2)c1C [CBK264091] | 17.0959% |
| S=C(NCCc1ccccc1)Nc1ccc2c(c1)OCCO2 [CBK267048] | 105.551% |
| O=C(Cc1ccccc1)N1CCN(c2ncccn2)CC1 [CBK144518] | 105.182% |
| N#CCCCN1CCC(Oc2cncc(OCc3ccc(Cl)c(Cl)c3)n2)C1 (stereo not shown) [CBK084436] | 35.9191% |
| NCC(O)CNC(=O)c1cc(-c2ccc(Cl)cc2)[nH]n1 (stereo not shown) [CBK160977] | 100% |
| O=C(COc1ccc(Br)cc1C(=O)O)NCCc1ccccc1 [CBK286796] | 119.935% |
| Cc1ccccc1NC(=O)Nc1cccc(F)c1 [CBK105831] | 117.883% |
| CCn1cc(-c2cncn2CC(C)n2nc(C)cc2C)cn1 (stereo not shown) [CBK281775] | 137.293% |
| CC(C)(CO)C(O)C(=O)NC1CCCC(C(=O)O)C1 (stereo not shown) [CBK286609] | 114.668% |
| Cc1cc(NC(=O)c2cc(C)oc2C)no1 [CBK058081] | 114.958% |
| CC(=O)Nc1ccc(S(=O)(=O)/N=C(\Nc2nc(C)cc(C)n2)Nc2ccccc2F)cc1 [CBK266134] | 115.307% |
| CC(C)Nc1nccnc1SCCN(C)C [CBK105290] | 141.723% |
| Cn1ncc(N2CCN(C(=O)CCCOc3ccccc3)CC2)cc1=O [CBK306937] | 125.593% |
| Cc1nc2c(c(=O)[nH]1)CCN(Cc1[nH]c3ccccc3c1C)C2 [CBK283995] | 117.573% |
| Cc1cc(NC(=O)NC2CCSc3ccccc32)no1 (stereo not shown) [CBK259296] | 100.183% |
| Oc1ccc(-n2ncc(-c3ccc(F)cc3F)n2)cc1 [CBK112736] | 115.875% |
| CC(C)(C)c1ccc(N(C2CCNCC2)S(=O)(=O)c2cccc(C(F)(F)F)c2)cc1 [CBK165056T] | 33.0553% |
